The target in the experiment is T1, C-terminal protein A (pA)-tagged Rad3 (Saccharomyces cerevisiae) (UniProt P06839).
T1 sequence: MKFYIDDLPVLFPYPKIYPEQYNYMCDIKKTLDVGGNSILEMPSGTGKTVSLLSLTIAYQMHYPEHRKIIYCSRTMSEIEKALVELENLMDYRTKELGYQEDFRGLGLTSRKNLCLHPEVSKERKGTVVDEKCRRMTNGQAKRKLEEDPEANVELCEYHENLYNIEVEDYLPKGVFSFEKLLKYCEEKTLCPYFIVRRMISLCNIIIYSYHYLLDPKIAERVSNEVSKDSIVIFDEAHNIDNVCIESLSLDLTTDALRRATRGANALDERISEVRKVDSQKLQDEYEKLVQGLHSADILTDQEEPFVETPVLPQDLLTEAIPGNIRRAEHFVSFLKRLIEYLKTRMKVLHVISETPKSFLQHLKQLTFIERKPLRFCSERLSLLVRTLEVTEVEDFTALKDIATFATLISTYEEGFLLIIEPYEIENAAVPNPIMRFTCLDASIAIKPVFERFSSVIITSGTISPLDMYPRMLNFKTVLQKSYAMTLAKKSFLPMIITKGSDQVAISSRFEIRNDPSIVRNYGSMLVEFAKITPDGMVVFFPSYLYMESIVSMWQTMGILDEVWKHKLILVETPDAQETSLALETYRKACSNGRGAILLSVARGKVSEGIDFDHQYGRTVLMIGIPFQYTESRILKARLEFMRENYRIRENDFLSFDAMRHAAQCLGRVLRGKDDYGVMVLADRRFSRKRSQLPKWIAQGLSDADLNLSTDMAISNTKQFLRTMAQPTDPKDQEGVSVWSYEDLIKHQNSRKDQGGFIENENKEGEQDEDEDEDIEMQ
Briefly: co-IP; Rad3-pA on IgG-Dynabeads from 4 mg yeast whole-cell extract overnight at 4 °C; TEV elution; Western blot; strains with FLAG-tagged WT or mutant Tfb2 as the sole source of Tfb2, TFB6 or tfb6Δ background.

These are yes or no findings as the source states them, for the method shown. In cells and extracts the contact can be indirect. Some results given as binding are weak or reduced against the parent protein; the word gives no strength. Sequences can lack the tags named with a protein.

B1: Tfb2 YL399–400AA, C-terminal 3× FLAG-tagged (protein, UniProt Q02939 1-513)
chain: MSDYSLKHSVTQYLEEIPQQVQNRLYTSPATCLAIYRILPPLAKFFIMAMVFNENEVPLLDLDKWVNSNGKLQFQNAIKSMKSLHLLIPNKSSGTLMINLNPTFKISLRNALTGGEVQNSFGVVVEENVVSLDLLDEYSANKWETILHFMVGTPLAKIPSEKVLNLLKHSKLMEEVNSTGEFKITNEGFQFLLQEINSQLWTLLLQYLKMIETSKMDLVDVLHFIFMLGALEVGKAYKIDALSETQRIMLQDMRDYGLVFQKHSNDSIFYPTKLALMLTSDTKTIRSASNAMDSVLRQNREEPSVNEDGANGKSTTDITTSDDLNKAGLKNQDIPDGSLIVETNFKIYSYSNSPLQIAVLSLFVHLKARFVNMVLGQITRESIRRALTNGITADQIIAAAETHAHPQMRRLAEEKLEKKLELDPNCKEPLQVLPPTVVDQIRLWQLELDRVITYEGSLYSDFETSQEYNLLSKYAQDIGVLLWKDDKKKKFFISKEGNSQVLDFAKRKLKKKQ
As to B1, the binding result is given as “binds”.

B2: Tfb2 YY348+350AA, C-terminal 3× FLAG-tagged (protein, UniProt Q02939 1-513)
chain: MSDYSLKHSVTQYLEEIPQQVQNRLYTSPATCLAIYRILPPLAKFFIMAMVFNENEVPLLDLDKWVNSNGKLQFQNAIKSMKSLHLLIPNKSSGTLMINLNPTFKISLRNALTGGEVQNSFGVVVEENVVSLDLLDEYSANKWETILHFMVGTPLAKIPSEKVLNLLKHSKLMEEVNSTGEFKITNEGFQFLLQEINSQLWTLLLQYLKMIETSKMDLVDVLHFIFMLGALEVGKAYKIDALSETQRIMLQDMRDYGLVFQKHSNDSIFYPTKLALMLTSDTKTIRSASNAMDSVLRQNREEPSVNEDGANGKSTTDITTSDDLNKAGLKNQDIPDGSLIVETNFKIASASNSPLQIAVLSLFVHLKARFVNMVLGQITRESIRRALTNGITADQIIAYLETHAHPQMRRLAEEKLEKKLELDPNCKEPLQVLPPTVVDQIRLWQLELDRVITYEGSLYSDFETSQEYNLLSKYAQDIGVLLWKDDKKKKFFISKEGNSQVLDFAKRKLKKKQ
Take B2: the binding result is on record as “binds”.

B3: Tfb2 RF369–370AA, C-terminal 3× FLAG-tagged (protein, UniProt Q02939 1-513)
chain: MSDYSLKHSVTQYLEEIPQQVQNRLYTSPATCLAIYRILPPLAKFFIMAMVFNENEVPLLDLDKWVNSNGKLQFQNAIKSMKSLHLLIPNKSSGTLMINLNPTFKISLRNALTGGEVQNSFGVVVEENVVSLDLLDEYSANKWETILHFMVGTPLAKIPSEKVLNLLKHSKLMEEVNSTGEFKITNEGFQFLLQEINSQLWTLLLQYLKMIETSKMDLVDVLHFIFMLGALEVGKAYKIDALSETQRIMLQDMRDYGLVFQKHSNDSIFYPTKLALMLTSDTKTIRSASNAMDSVLRQNREEPSVNEDGANGKSTTDITTSDDLNKAGLKNQDIPDGSLIVETNFKIYSYSNSPLQIAVLSLFVHLKAAAVNMVLGQITRESIRRALTNGITADQIIAYLETHAHPQMRRLAEEKLEKKLELDPNCKEPLQVLPPTVVDQIRLWQLELDRVITYEGSLYSDFETSQEYNLLSKYAQDIGVLLWKDDKKKKFFISKEGNSQVLDFAKRKLKKKQ
As for B3, the binding result is “binds”.

B4: C-terminal 3× FLAG-tagged WT Tfb2 (protein, UniProt Q02939 1-513)
chain: MSDYSLKHSVTQYLEEIPQQVQNRLYTSPATCLAIYRILPPLAKFFIMAMVFNENEVPLLDLDKWVNSNGKLQFQNAIKSMKSLHLLIPNKSSGTLMINLNPTFKISLRNALTGGEVQNSFGVVVEENVVSLDLLDEYSANKWETILHFMVGTPLAKIPSEKVLNLLKHSKLMEEVNSTGEFKITNEGFQFLLQEINSQLWTLLLQYLKMIETSKMDLVDVLHFIFMLGALEVGKAYKIDALSETQRIMLQDMRDYGLVFQKHSNDSIFYPTKLALMLTSDTKTIRSASNAMDSVLRQNREEPSVNEDGANGKSTTDITTSDDLNKAGLKNQDIPDGSLIVETNFKIYSYSNSPLQIAVLSLFVHLKARFVNMVLGQITRESIRRALTNGITADQIIAYLETHAHPQMRRLAEEKLEKKLELDPNCKEPLQVLPPTVVDQIRLWQLELDRVITYEGSLYSDFETSQEYNLLSKYAQDIGVLLWKDDKKKKFFISKEGNSQVLDFAKRKLKKKQ
For the molecule B4, the binding entry is on record as “binds”.

B5: Tfb1 (protein, UniProt P32776 1-642)
chain: MSHSGAAIFEKVSGIIAINEDVSPAELTWRSTDGDKVHTVVLSTIDKLQATPASSEKMMLRLIGKVDESKKRKDNEGNEVVPKPQRHMFSFNNRTVMDNIKMTLQQIISRYKDADIYEEKRRREESAQHTETPMSSSSVTAGTPTPHLDTPQLNNGAPLINTAKLDDSLSKEKLLTNLKLQQSLLKGNKVLMKVFQETVINAGLPPSEFWSTRIPLLRAFALSTSQKVGPYNVLSTIKPVASSENKVNVNLSREKILNIFENYPIVKKAYTDNVPKNFKEPEFWARFFSSKLFRKLRGEKIMQNDRGDVIIDRYLTLDQEFDRKDDDMLLHPVKKIIDLDGNIQDDPVVRGNRPDFTMQPGVDINGNSDGTVDILKGMNRLSEKMIMALKNEYSRTNLQNKSNITNDEEDEDNDERNELKIDDLNESYKTNYAIIHLKRNAHEKTTDNDAKSSADSIKNADLKVSNQQMLQQLSLVMDNLINKLDLNQVVPNNEVSNKINKRVITAIKINAKQAKHNNVNSALGSFVDNTSQANELEVKSTLPIDLLESCRMLHTTCCEFLKHFYIHFQSGEQKQASTVKKLYNHLKDCIEKLNELFQDVLNGDGESMSNTCTAYLKPVLNSITLATHKYDEYFNEYNNNSN
Consider B5, for which the binding entry was “binds”.

B6: Tfb3 (protein, UniProt Q03290 1-321)
chain: MLMDEYEENKDMCPICKTDRYLSPDVKFLVNPECYHRICESCVDRIFSLGPAQCPYKGCDKILRKNKFKTQIFDDVEVEKEVDIRKRVFNVFNKTIDDFNGDLVEYNKYLEEVEDIIYKLDHGIDVAKTEEKLRTYEELNKQLIMNNLERSRTEIESFEQRQKFEKEMKLKKRLLERQIEEEERMNKEWTKKEIVNRLSTTTQDINETIEGVKNTVKLKKSSARRKLEELNRVLKNNPYFNSNVNVQNSRLKDAVPFTPFNGDREAHPRFTLKGSVYNDPFIKDLEHRKEFIASGFNTNYAYERVLTEAFMGLGCVISEEL
Take B6: the binding result is given as “binds”.

For the origin of these results see PMC9557730.
